# Results as given in paper PMC10688885.
# Results are given in words; binding and its absence hold for the method and conditions named. Binding can be weak; no strength is given.
# Target: CdxB (C. crescentus)
# Assay: two-hybrid; bacterial two-hybrid: fusions to the T18c and T25 fragments of adenylate cyclase co-expressed in E. coli BTH101; lacZ reporter, β-galactosidase activity in Miller units (liquid culture, 30°C, 0.5 mM IPTG) and spots on X-gal plates
substance,measurement,value
CdxA (from UniProt A0A0H3C2L6),binding,binds
